Data as given in PubChem BioAssay AID1259254 (NCATS, 2017).

Assay: 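Genome-wide screen for genes that prevent DNA re-replication in cancer cells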 (primary screen)
System: human HCT116 colorectal cancer cells
Reagent: single siRNA against human genes
Timing: 3 days
Read-out: 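Nuclei stained with Hoechst and imaged; cell-cycle phase assigned by DNA content; G2 share scaled per plate, non-targeting siRNA 0%, GMNN siRNA 100%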
Reading the numbers: G2 robust z-score: higher = more G2 cells, more excess DNA replication
Rule for the call: 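Active siRNAs have a G2 robust z of 5 or more median absolute deviations over the median, which in these data means about 38% or higher of GMNN control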
Shown is one part, drawn at random, of about 59,000 reagents tested. About 1,550 of them (2.6%) were called active. 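G2 share is only a proxy for re-replication; each gene was hit by three separate siRNAs, and active genes were retested.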 The numbers tell different reagents against one gene apart. Not all columns of the deposit are shown. No sequences are given here. Not given: the amount of reagent.

KANK1 #1 | G2 robust z-score = 4.51; Outcome = inactive
KANK1 #2 | G2 robust z-score = 0.829; Outcome = inactive
KANK1 #3 | G2 robust z-score = -0.268; Outcome = inactive
UTRN #1 | G2 robust z-score = 5.82; Outcome = active
UTRN #2 | G2 robust z-score = -1.35; Outcome = inactive
UTRN #3 | G2 robust z-score = -0.579; Outcome = inactive
DNTT #1 | G2 robust z-score = 0.361; Outcome = inactive
DNTT #2 | G2 robust z-score = 1.96; Outcome = inactive
DNTT #3 | G2 robust z-score = 2.08; Outcome = inactive
CPEB2-DT #1 | G2 robust z-score = -0.21; Outcome = inactive
CPEB2-DT #2 | G2 robust z-score = 0.0978; Outcome = inactive
CPEB2-DT #3 | G2 robust z-score = 0.753; Outcome = inactive

2 of these entries, reformatted:
Gene | siRNA no. | G2 robust z-score | Outcome
UTRN | 2 | -1.35 | inactive
UTRN | 3 | -0.579 | inactive
